Measurements reported in PubChem BioAssay AID270 (DTP/NCI, 2004).
The list shows only some results of the screen, not a fair sample: it is rich in T/C values a quarter to a half above the control, in often repeated tests (any T/C) and in doses without a T/C. Further doses and runs are listed elsewhere. T/C: endpoint of the treated group in % of that of the vehicle group. Some doses have a count of surviving animals in place of a T/C: the source files T/C as zero there, which appears to mark a toxic dose or a test without result, not a measured value. Some doses without a T/C left all or most animals alive at the check, yet need not have been tolerated: the source hardly ever lists a survival T/C far under the control, and the zero likely stands for such cases as well. Counts of survivors are from the toxicity check (mostly the fifth day) where no day follows; animals may have died later. Schedules are NCI's codes, read here as Q, the interval in days (D) or hours (H), X, the number of doses. Some doses were run more than once; their values stand side by side, smallest first. For survival time, this PubChem deposit counts one and a half times the control or more as active, and values a quarter to a half above the control carry no call in these data; other NCI protocols may use other cut-offs. Some T/C values are followed by the survivors on the day toxicity was checked, most often the fifth; without a count, all were alive then.

Tested on: BDF1 mice, s.c. Lewis lung carcinoma, T/C %
Test: NCI In Vivo Anticancer Drug Screen. Data for tumor model Lewis Lung Carcinoma (subcutaneous) in B6D2F1 (BDF1) mice
How it was run: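 Readout: survival or tumor size, expressed as treated (T) over vehicle control (C). Transplantable tumor implanted in mice; compound given to the treated group.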

[1] = T/C endpoint: median survival time, dose: 0.25 mg/kg/injection, schedule: Q01DX009 (ip), vehicle: saline, higher T/C = longer survival
[2] = T/C endpoint: median survival time, dose: 0.5 mg/kg/injection, schedule: Q01DX009 (ip), vehicle: saline, higher T/C = longer survival
[3] = T/C endpoint: median survival time, dose: 1.0 mg/kg/injection, schedule: Q01DX009 (ip), vehicle: saline, higher T/C = longer survival
[4] = T/C endpoint: median survival time, dose: 2.0 mg/kg/injection, schedule: Q01DX009 (ip), vehicle: saline, higher T/C = longer survival
[5] = T/C endpoint: median survival time, dose: 50.0 mg/kg/injection, schedule: Q01DX005 (ip), vehicle: saline with Tween-80, higher T/C = longer survival

C1CN1c1nc(N2CC2)nc(N2CC2)n1
survivor count (T/C endpoint: mean tumor weight, dose: 1.0 mg/kg/injection, schedule: Q01DX011 (ip), vehicle: saline, higher T/C = larger tumour): 1 of 10 and 4 of 10 | T/C (T/C endpoint: median survival time, dose: 0.12 mg/kg/injection, schedule: Q01DX009 (ip), vehicle: saline with Tween-80, higher T/C = longer survival): 132 % of control | T/C (T/C endpoint: median survival time, dose: 0.13 mg/kg/injection, schedule: Q01DX009 (ip), vehicle: saline, higher T/C = longer survival): 128 and 143 % of control | T/C (T/C endpoint: median survival time, dose: 0.2 mg/kg/injection, schedule: Q01DX009 (ip), vehicle: saline, higher T/C = longer survival): 136 % of control | T/C (T/C endpoint: median survival time, dose: 0.25 mg/kg/injection, schedule: Q01DX009 (ip), vehicle: saline with Tween-80, higher T/C = longer survival): 136 % of control | T/C [1]: 125 and 147 % of control | survivor count [1]: 9 of 10 and 10 of 10 | T/C [2]: 89 [9 of 10 alive] and 103 % of control | survivor count [2]: 8 of 10 and 9 of 10 | survivor count (T/C endpoint: median survival time, dose: 0.8 mg/kg/injection, schedule: Q01DX009 (ip), vehicle: saline, higher T/C = longer survival): 10 of 10 | survivor count (T/C endpoint: median survival time, dose: 1.0 mg/kg/injection, schedule: Q01DX009 (ip), vehicle: saline with Tween-80, higher T/C = longer survival): 10 of 10 | survivor count [3]: 6 of 10, 9 of 10, 10 of 10, 9 of 9 | survivor count [4]: 0 of 10 | survivor count (T/C endpoint: median survival time, dose: 2.0 mg/kg/injection, schedule: Q08DX002 (ip), vehicle: saline, higher T/C = longer survival): 8 of 9 and 10 of 10 | survivor count (T/C endpoint: median survival time, dose: 4.0 mg/kg/injection, schedule: Q08DX002 (ip), vehicle: saline with Tween-80, higher T/C = longer survival): 9 of 10 | survivor count (T/C endpoint: median survival time, dose: 4.0 mg/kg/injection, schedule: Q08DX002 (ip), vehicle: saline, higher T/C = longer survival): 7 of 10 and 10 of 10 | T/C (T/C endpoint: median survival time, dose: 125.0 micrograms/kg/injection, schedule: Q01DX009 (ip), vehicle: saline, higher T/C = longer survival): 127 % of control | survivor count (T/C endpoint: median survival time, dose: 1000.0 micrograms/kg/injection, schedule: Q01DX009 (ip), vehicle: saline, higher T/C = longer survival): 10 of 10 | survivor count (T/C endpoint: median tumor weight (est.), dose: 4.0 mg/kg/injection, schedule: Q08DX002 (ip), vehicle: saline with Tween-80, higher T/C = larger tumour): 3 of 10

CC1=C(/C=C/C(C)=C/C=C/C(C)=C/CO)C(C)(C)CCC1
survivor count (T/C endpoint: median survival time, dose: 6.25 mg/kg/injection, schedule: Q01DX005 (ip), vehicle: saline with Tween-80, higher T/C = longer survival): 10 of 10 | T/C (T/C endpoint: median survival time, dose: 8.0 mg/kg/injection, schedule: Q01DX005 (ip), vehicle: saline with Tween-80, higher T/C = longer survival): 127 % of control | survivor count (T/C endpoint: median survival time, dose: 25.0 mg/kg/injection, schedule: Q01DX005 (ip), vehicle: saline with Tween-80, higher T/C = longer survival): 10 of 10 | T/C [5]: 141 % of control | survivor count [5]: 10 of 10 | survivor count (T/C endpoint: median survival time, dose: 75.0 mg/kg/injection, schedule: Q01DX005 (ip), vehicle: saline with Tween-80, higher T/C = longer survival): 10 of 10 | survivor count (T/C endpoint: median survival time, dose: 100.0 mg/kg/injection, schedule: Q01DX005 (ip), vehicle: saline with Tween-80, higher T/C = longer survival): 3 of 10 | survivor count (T/C endpoint: median survival time, dose: 200.0 mg/kg/injection, schedule: Q01DX005 (ip), vehicle: saline with Tween-80, higher T/C = longer survival): 0 of 10

C[C@]12CC[C@H](O)C[C@@]1(O)CC[C@@H]1[C@@H]2CC[C@]2(C)[C@@H](c3ccc(=O)oc3)CC[C@]12O
survivor count (T/C endpoint: median survival time, dose: 5.0 mg/kg/injection, schedule: Q01DX009 (ip), vehicle: Klucel (hydroxypropylcellulose) (HPC), higher T/C = longer survival): 10 of 10

C#C[C@]1(O)CC[C@H]2[C@@H]3CCc4cc(O)ccc4[C@H]3CC[C@@]21C
survivor count (T/C endpoint: median survival time, dose: 5.0 mg/kg/injection, schedule: Q02DX009 (ip), vehicle: Klucel (hydroxypropylcellulose) (HPC), higher T/C = longer survival): 9 of 10 | survivor count (T/C endpoint: median survival time, dose: 80.0 mg/kg/injection, schedule: Q02DX009 (ip), vehicle: Klucel (hydroxypropylcellulose) (HPC), higher T/C = longer survival): 10 of 10 | survivor count (T/C endpoint: median survival time, dose: 160.0 mg/kg/injection, schedule: Q02DX009 (ip), vehicle: Klucel (hydroxypropylcellulose) (HPC), higher T/C = longer survival): 10 of 10 | survivor count (T/C endpoint: median survival time, dose: 320.0 mg/kg/injection, schedule: Q02DX009 (ip), vehicle: Klucel (hydroxypropylcellulose) (HPC), higher T/C = longer survival): 10 of 10 | survivor count (T/C endpoint: median survival time, dose: 640.0 mg/kg/injection, schedule: Q02DX009 (ip), vehicle: Klucel (hydroxypropylcellulose) (HPC), higher T/C = longer survival): 10 of 10

O=NN(CCCl)C(=O)NC1CCC(=O)NC1=O (stereo not given)
survivor count (T/C endpoint: median survival time, dose: 1.3 mg/kg/injection, schedule: Q02DX009 (ip), vehicle: saline with Tween-80, higher T/C = longer survival): 10 of 10 | T/C (T/C endpoint: median survival time, dose: 2.5 mg/kg/injection, schedule: Q01DX009 (ip), vehicle: other, higher T/C = longer survival): 141 % of control | T/C (T/C endpoint: median survival time, dose: 4.0 mg/kg/injection, schedule: Q01DX009 (ip), vehicle: Klucel (hydroxypropylcellulose) (HPC), higher T/C = longer survival): 131 % of control | survivor count (T/C endpoint: median survival time, dose: 4.0 mg/kg/injection, schedule: Q04DX003 (ip), vehicle: saline with Tween-80, higher T/C = longer survival): 10 of 10 | survivor count (T/C endpoint: median survival time, dose: 5.0 mg/kg/injection, schedule: Q01DX001 (ip), vehicle: other, higher T/C = longer survival): 10 of 10 | T/C (T/C endpoint: median survival time, dose: 5.0 mg/kg/injection, schedule: Q01DX009 (ip), vehicle: other, higher T/C = longer survival): 127 % of control | T/C (T/C endpoint: median survival time, dose: 7.0 mg/kg/injection, schedule: Q01DX001 (ip), vehicle: gum acacia, higher T/C = longer survival): 132 % of control | survivor count (T/C endpoint: median survival time, dose: 10.0 mg/kg/injection, schedule: Q01DX009 (ip), vehicle: other, higher T/C = longer survival): 10 of 10 | T/C (T/C endpoint: median survival time, dose: 11.0 mg/kg/injection, schedule: Q01DX001 (ip), vehicle: gum acacia, higher T/C = longer survival): 136 % of control | T/C (T/C endpoint: median survival time, dose: 17.0 mg/kg/injection, schedule: Q01DX001 (ip), vehicle: gum acacia, higher T/C = longer survival): 126 % of control | T/C (T/C endpoint: median survival time, dose: 20.0 mg/kg/injection, schedule: Q01DX001 (ip), vehicle: other, higher T/C = longer survival): 137 [9 of 10 alive] and 141 % of control | survivor count (T/C endpoint: median survival time, dose: 20.0 mg/kg/injection, schedule: Q01DX001 (ip), vehicle: saline, higher T/C = longer survival): 10 of 10 | survivor count (T/C endpoint: median survival time, dose: 40.0 mg/kg/injection, schedule: Q01DX001 (ip), vehicle: other, higher T/C = longer survival): 9 of 10 and 10 of 10 | survivor count (T/C endpoint: median survival time, dose: 80.0 mg/kg/injection, schedule: Q01DX001 (ip), vehicle: other, higher T/C = longer survival): 6 of 10 and 10 of 10 | survivor count (T/C endpoint: median survival time, dose: 80.0 mg/kg/injection, schedule: Q01DX001 (ip), vehicle: saline, higher T/C = longer survival): 10 of 10 | survivor count (T/C endpoint: median tumor weight (est.), dose: 23.0 mg/kg/injection, schedule: Q01DX001 (ip), vehicle: gum acacia, higher T/C = larger tumour): 5 of 10 on day 16

OCN(CO)c1nc(N(CO)CO)nc(N(CO)CO)n1
survivor count (T/C endpoint: median survival time, dose: 50.0 mg/kg/injection, schedule: Q01DX009 (ip), vehicle: saline with Tween-80, higher T/C = longer survival): 2 of 10 | survivor count (T/C endpoint: median survival time, dose: 100.0 mg/kg/injection, schedule: Q01DX009 (ip), vehicle: saline with Tween-80, higher T/C = longer survival): 5 of 10 | survivor count (T/C endpoint: median survival time, dose: 200.0 mg/kg/injection, schedule: Q01DX009 (ip), vehicle: saline with Tween-80, higher T/C = longer survival): 0 of 10 | survivor count (T/C endpoint: median survival time, dose: 400.0 mg/kg/injection, schedule: Q01DX009 (ip), vehicle: saline with Tween-80, higher T/C = longer survival): 0 of 10 | survivor count (T/C endpoint: median survival time, dose: 800.0 mg/kg/injection, schedule: Q01DX009 (ip), vehicle: saline with Tween-80, higher T/C = longer survival): 0 of 10

CCc1ccccc1N1CCN(C(=O)c2cc(OC)c(OC)c(OC)c2)CC1
survivor count (T/C endpoint: mean tumor weight, dose: 100.0 mg/kg/injection, schedule: Q01DX011 (ip), vehicle: carboxymethylcellulose (CMC), higher T/C = larger tumour): 0 of 6

O=P(N1CC1)(N1CC1)N1CC1
survivor count (T/C endpoint: mean tumor weight, dose: 0.4 mg/kg/injection, schedule: Q01DX011 (ip), vehicle: other, higher T/C = larger tumour): 3 of 6 | survivor count (T/C endpoint: mean tumor weight, dose: 2.0 mg/kg/injection, schedule: Q01DX011 (ip), vehicle: other, higher T/C = larger tumour): 0 of 6 | survivor count (T/C endpoint: mean tumor weight, dose: 3.0 mg/kg/injection, schedule: Q01DX011 (ip), vehicle: other, higher T/C = larger tumour): 0 of 6 | survivor count (T/C endpoint: mean tumor weight, dose: 5.0 mg/kg/injection, schedule: Q01DX011 (ip), vehicle: other, higher T/C = larger tumour): 0 of 6 | survivor count (T/C endpoint: mean tumor weight, dose: 7.0 mg/kg/injection, schedule: Q01DX011 (ip), vehicle: other, higher T/C = larger tumour): 0 of 6 | survivor count [2]: 10 of 10 | survivor count [3]: 9 of 10 | survivor count [4]: 10 of 10 | survivor count (T/C endpoint: median survival time, dose: 4.0 mg/kg/injection, schedule: Q01DX009 (ip), vehicle: saline, higher T/C = longer survival): 10 of 10 | survivor count (T/C endpoint: median survival time, dose: 8.0 mg/kg/injection, schedule: Q01DX009 (ip), vehicle: saline, higher T/C = longer survival): 10 of 10 | survivor count (T/C endpoint: median survival time, dose: 16.0 mg/kg/injection, schedule: Q01DX009 (ip), vehicle: saline, higher T/C = longer survival): 10 of 10

C[CH2][Pb]([CH2]C)([CH2]C)[O]C(=O)COC
survivor count (T/C endpoint: median survival time, dose: 6.25 mg/kg/injection, schedule: Q01DX009 (ip), vehicle: Klucel (hydroxypropylcellulose) (HPC), higher T/C = longer survival): 9 of 10

CC(C)(C)C1CCC(NC(=O)N(CCCl)N=O)CC1 (stereo not given)
T/C (T/C endpoint: median survival time, dose: 210.0 mg/kg/injection, schedule: Q01DX001 (ip), vehicle: gum acacia, higher T/C = longer survival): 125 % of control | T/C (T/C endpoint: median survival time, dose: 316.0 mg/kg/injection, schedule: Q01DX001 (ip), vehicle: gum acacia, higher T/C = longer survival): 142 % of control | survivor count (T/C endpoint: median survival time, dose: 472.0 mg/kg/injection, schedule: Q01DX001 (ip), vehicle: gum acacia, higher T/C = longer survival): 9 of 10 on day 15 and 10 of 10
